T/C and survivor count data for 21 molecules are collected here from PubChem BioAssay AID212 (DTP/NCI, 2004).

The experiment concerns BDF1 mice, colon carcinoma 38 sc, T/C %. Briefly: NCI In Vivo Anticancer Drug Screen. Data for tumor model Colon Carcinoma 38 (subcutaneous) in B6D2F1 (BDF1) mice. The gist of the method: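 Compound antitumor activity was assessed in mice carrying transplantable tumors. Survival or tumor size was recorded, and each value is the treated-group measurement divided by that of the vehicle-treated control group.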

The mark [1] stands for this setting: T/C endpoint: median tumor weight (est.), dose: 400.0 mg/kg/injection, schedule: Q07DX002 (ip), vehicle: saline, higher T/C = larger tumour.
[2] abbreviates: T/C endpoint: median tumor weight (est.), dose: 25.0 mg/kg/injection, schedule: Q07DX002 (ip), vehicle: saline, evaluated on day 20, higher T/C = larger tumour.
[3] abbreviates: T/C endpoint: median tumor weight (est.), dose: 800.0 mg/kg/injection, schedule: Q07DX002 (ip), vehicle: saline, higher T/C = larger tumour.
[4] abbreviates: T/C endpoint: median tumor weight (est.), dose: 25.0 mg/kg/injection, schedule: Q07DX002 (ip), vehicle: saline with Tween-80, evaluated on day 20, higher T/C = larger tumour.
Where [5] appears, read: T/C endpoint: median tumor weight (est.), dose: 200.0 mg/kg/injection, schedule: Q07DX002 (ip), vehicle: saline, evaluated on day 20, higher T/C = larger tumour.
The mark [6] stands for this setting: T/C endpoint: median tumor weight (est.), dose: 400.0 mg/kg/injection, schedule: Q07DX002 (ip), vehicle: saline with Tween-80, higher T/C = larger tumour.
The mark [7] stands for this setting: T/C endpoint: median tumor weight (est.), dose: 100.0 mg/kg/injection, schedule: Q07DX002 (ip), vehicle: saline with Tween-80, evaluated on day 20, higher T/C = larger tumour.
[8] abbreviates: T/C endpoint: median tumor weight (est.), dose: 100.0 mg/kg/injection, schedule: Q07DX002 (ip), vehicle: saline with Tween-80, higher T/C = larger tumour.
Setting [9] is: T/C endpoint: median tumor weight (est.), dose: 200.0 mg/kg/injection, schedule: Q07DX002 (ip), vehicle: saline with Tween-80, higher T/C = larger tumour.
Where [10] appears, read: T/C endpoint: median tumor weight (est.), dose: 12.5 mg/kg/injection, schedule: Q07DX002 (ip), vehicle: saline, evaluated on day 20, higher T/C = larger tumour.
[11] abbreviates: T/C endpoint: median tumor weight (est.), dose: 400.0 mg/kg/injection, schedule: Q07DX002 (ip), vehicle: Klucel (hydroxypropylcellulose) (HPC), higher T/C = larger tumour.
[12] abbreviates: T/C endpoint: median tumor weight (est.), dose: 200.0 mg/kg/injection, schedule: Q07DX002 (ip), vehicle: Klucel (hydroxypropylcellulose) (HPC), higher T/C = larger tumour.

The list is a part of this screen's results and no random one: it gathers tests that were run many times, whatever their T/C, doses with no T/C, and many T/C values between a quarter and a half above the control. Other doses and runs of a compound stand elsewhere. T/C: endpoint of the treated group in % of that of the vehicle group. Schedule codes are those of the source, taken here to give the interval after Q, in days (D) or hours (H), and the number of doses after X. Some T/C values carry the count of animals alive at the toxicity check (mostly the fifth day); where none is given, no animal had died by that day. Some entries give survivors of the animals treated and no T/C: the source holds a T/C of zero for them, seemingly a mark for toxic or unscored doses. Survivors were counted at the toxicity check, usually on the fifth day, unless a day is given; later deaths do not show. For survival time, this PubChem deposit counts one and a half times the control or more as active, and values a quarter to a half above the control carry no call in these data; other NCI protocols may use other cut-offs.

Take `O=C(/C=C(\Cl)C(=O)NO)NO`: the T/C (T/C endpoint: median tumor weight (est.), dose: 50.0 mg/kg/injection, schedule: Q07DX002 (ip), vehicle: suspension in saline, evaluated on day 20, higher T/C = larger tumour) was 127 % of control. For the same molecule, the survivor count is, setting by setting: (T/C endpoint: median tumor weight (est.), dose: 200.0 mg/kg/injection, schedule: Q07DX002 (ip), vehicle: saline, higher T/C = larger tumour) 3 of 10 on day 20; (T/C endpoint: median tumor weight (est.), dose: 200.0 mg/kg/injection, schedule: Q07DX002 (ip), vehicle: suspension in saline, higher T/C = larger tumour) 1 of 10 on day 20; under setting [1], 0 of 10 on day 20; (T/C endpoint: median tumor weight (est.), dose: 400.0 mg/kg/injection, schedule: Q07DX002 (ip), vehicle: suspension in saline, higher T/C = larger tumour) 0 of 10 on day 20.
For the molecule `C=CC(C)NC(=S)NNC(=S)NC` (stereo not given), the survivor count (T/C endpoint: median tumor weight (est.), dose: 800.0 mg/kg/injection, schedule: Q07DX002 (ip), vehicle: saline + alcohol, higher T/C = larger tumour) is 6 of 10 on day 20.
As for `COC(=O)c1ccoc1`, under setting [2], the T/C is 125 % of control. The survivor count is listed as 2 of 10 on day 20 (T/C endpoint: median tumor weight (est.), dose: 50.0 mg/kg/injection, schedule: Q07DX002 (ip), vehicle: saline, higher T/C = larger tumour) and 0 of 10 on day 20 under setting [3].
With `CN(C)CCN1C(=O)c2cccc3cc([N+](=O)[O-])cc(c23)C1=O`, the survivor count (T/C endpoint: median tumor weight (est.), dose: 25.0 mg/kg/injection, schedule: Q07DX002 (ip), vehicle: saline with Tween-80, higher T/C = larger tumour) is listed as 2 of 10 on day 20.
On to `CN(N=O)C(=O)N[C@@H](C=O)[C@@H](O)[C@H](O)[C@H](O)CO`, for which the survivor count (T/C endpoint: median survival time, dose: 97.0 mg/kg/injection, schedule: Q01DX010 (sc), vehicle: other, higher T/C = longer survival) is given as 4 of 10 on day 95.
In the case of `CCCCCC(O)C1C(=O)OC(C)C(O)/C=C/C=C/C=C/C=C\C=C(\C)C(O)CC(O)CC(O)CC(O)CC(O)CC(O)CC1O` (stereo not given), the T/C (T/C endpoint: median tumor weight (est.), dose: 10.0 mg/kg/injection, schedule: Q07DX002 (ip), vehicle: saline, evaluated on day 20, higher T/C = larger tumour) is 135 % of control.
For `CC(C)=CCNc1ncnc2c1ncn2C1OC(CO)C(O)C1O` (stereo not given), the T/C under setting [4] was 144 % of control; the T/C (T/C endpoint: median tumor weight (est.), dose: 50.0 mg/kg/injection, schedule: Q07DX002 (ip), vehicle: saline, evaluated on day 20, higher T/C = larger tumour) is 130 % of control; the T/C under setting [5] is 142 % of control. Further, the survivor count under setting [6] was 0 of 10 on day 20.
In the case of `O=C1N(Cl)C(=O)C(c2ccc(Cl)cc2)(c2ccc(Cl)cc2)N1Cl`, the T/C (T/C endpoint: median tumor weight (est.), dose: 12.5 mg/kg/injection, schedule: Q07DX002 (ip), vehicle: saline with Tween-80, evaluated on day 20, higher T/C = larger tumour) is 126 % of control.
On to `CCOC(=O)C(C)(C)Oc1ccc(Cl)cc1`, for which, under setting [7], the T/C was 127 % of control. Also, the survivor count under setting [8] is 5 of 10 on day 20; the survivor count under setting [9] is 5 of 10 on day 20; the survivor count under setting [6] is listed as 1 of 10 on day 20; the survivor count (T/C endpoint: median tumor weight (est.), dose: 800.0 mg/kg/injection, schedule: Q07DX002 (ip), vehicle: saline with Tween-80, higher T/C = larger tumour) was 1 of 10 on day 20.
`CC(=O)Oc1c(C)[nH]ccc1=O`: the T/C reads like this: under setting [10], 133 % of control; under setting [2], 131 % of control; under setting [5], 130 % of control.
In the case of `CC(C)NC(=O)N(CCCCBr)N=O`, the survivor count under setting [11] is recorded as 1 of 10 on day 20.
In the case of `Cc1nn(CCO)c(C)c1N=[N+]([O-])c1c(C)nn(CCO)c1C`, the T/C reads like this: under setting [4], 134 % of control [8 of 10 alive on day 20]; under setting [7], 144 % of control. In addition, the survivor count reads like this: under setting [12], 4 of 10 on day 20; under setting [11], 0 of 10 on day 20.
As to `C=CC(=O)NCNC(=O)C=C`, the T/C by setting is: under setting [10], 139 % of control; (T/C endpoint: median tumor weight (est.), dose: 100.0 mg/kg/injection, schedule: Q07DX002 (ip), vehicle: saline, evaluated on day 20, higher T/C = larger tumour) 140 % of control.
Turning to `O=C(O)Cc1cccc2c(=O)cc(-c3ccccc3)oc12`, the survivor count is 4 of 10 on day 20 (T/C endpoint: median tumor weight (est.), dose: 112.0 mg/kg/injection, schedule: Q03HX004 (ip), vehicle: clinical formulation, higher T/C = larger tumour); 0 of 10 on day 20 (T/C endpoint: median tumor weight (est.), dose: 150.0 mg/kg/injection, schedule: Q03HX004 (ip), vehicle: clinical formulation, higher T/C = larger tumour); 0 of 10 on day 20 (T/C endpoint: median tumor weight (est.), dose: 200.0 mg/kg/injection, schedule: Q03HX004 (ip), vehicle: clinical formulation, higher T/C = larger tumour); 1 of 10 on day 20 (T/C endpoint: median tumor weight (est.), dose: 200.0 mg/kg/injection, schedule: Q06HX002 (ip), vehicle: clinical formulation, higher T/C = larger tumour); 0 of 10 on day 20 under setting [12]; 1 of 10 on day 20 (T/C endpoint: median tumor weight (est.), dose: 267.0 mg/kg/injection, schedule: Q01DX001 (ip), vehicle: clinical formulation, higher T/C = larger tumour). Besides, the survivor count reads like this: (T/C endpoint: median tumor weight (est.), dose: 267.0 mg/kg/injection, schedule: Q06HX002 (ip), vehicle: clinical formulation, higher T/C = larger tumour) 1 of 10 on day 20; (T/C endpoint: median tumor weight (est.), dose: 267.0 mg/kg/injection, schedule: Q07DX002 (ip), vehicle: clinical formulation, higher T/C = larger tumour) 4 of 10 on day 20; (T/C endpoint: median tumor weight (est.), dose: 356.0 mg/kg/injection, schedule: Q01DX001 (ip), vehicle: clinical formulation, higher T/C = larger tumour) 0 of 9 on day 20; (T/C endpoint: median tumor weight (est.), dose: 356.0 mg/kg/injection, schedule: Q07DX002 (ip), vehicle: clinical formulation, higher T/C = larger tumour) 0 of 10 on day 20; (T/C endpoint: median tumor weight (est.), dose: 356.0 mg/kg/injection, schedule: Q07DX002 (iv), vehicle: sodium bicarbonate, higher T/C = larger tumour) 2 of 10 on day 20; (T/C endpoint: median tumor weight (est.), dose: 400.0 mg/kg/injection, schedule: Q07DX002 (ip), vehicle: sodium bicarbonate, higher T/C = larger tumour) 1 of 10 on day 20.
Turning to `O=c1oc2c(O)c(O)cc3c(=O)oc4c(O)c(O)cc1c4c23`, the T/C runs as follows: (T/C endpoint: median tumor weight (est.), dose: 100.0 mg/kg/injection, schedule: Q07DX002 (ip), vehicle: Klucel (hydroxypropylcellulose) (HPC), evaluated on day 20, higher T/C = larger tumour) 131 % of control; (T/C endpoint: median tumor weight (est.), dose: 200.0 mg/kg/injection, schedule: Q07DX002 (ip), vehicle: Klucel (hydroxypropylcellulose) (HPC), evaluated on day 20, higher T/C = larger tumour) 145 % of control [8 of 9 alive on day 20].
Consider `N[C@H](C(=O)O)[C@@H]1CC(Cl)=NO1`, for which the T/C by setting is: (T/C endpoint: median survival time, dose: 120.0 mg/kg/injection, schedule: Q04DX002 (ip), vehicle: suspension in saline, higher T/C = longer survival) 133 % of control [8 of 10 alive on day 100]; (T/C endpoint: median tumor weight (est.), dose: 4.0 mg/kg/injection, schedule: Q07DX003 (ip), vehicle: saline, evaluated on day 20, higher T/C = larger tumour) 125 % of control; (T/C endpoint: median tumor weight (est.), dose: 8.0 mg/kg/injection, schedule: Q07DX003 (ip), vehicle: saline, evaluated on day 20, higher T/C = larger tumour) 141 % of control; (T/C endpoint: median tumor weight (est.), dose: 16.0 mg/kg/injection, schedule: Q07DX003 (ip), vehicle: saline, evaluated on day 20, higher T/C = larger tumour) 134 % of control; (T/C endpoint: median tumor weight (est.), dose: 32.0 mg/kg/injection, schedule: Q07DX003 (ip), vehicle: saline, evaluated on day 20, higher T/C = larger tumour) 141 % of control.
Consider `CCC(=O)N(C)[C@@H](C)C(=O)O[C@H]1CC(=O)N(C)c2cc(cc(OC)c2Cl)C/C(C)=C/C=C[C@@H](OC)[C@@]2(O)C[C@H](OC(=O)N2)[C@@H](C)[C@@H]2O[C@@]12C`, for which, under “T/C endpoint: median tumor weight (est.), dose: 15.0 micrograms/kg/injection, schedule: Q07DX002 (ip), vehicle: saline + alcohol, evaluated on day 20, higher T/C = larger tumour”, the T/C was 141 % of control.
For `CCC(C(=O)O)C(=O)O.[NH-]CC1CCCC[N-]1.[Pt+2]`, the survivor count under setting [1] is 5 of 10 on day 20 and the survivor count under setting [3] is given as 0 of 10 on day 20.
`Nc1ccc(C(OC(=O)c2cc3ccccc3c(Cc3c(O)c(C(=O)OC(c4ccc(N)cc4)(c4ccc(N)cc4)c4ccc(N)cc4)cc4ccccc34)c2O)(c2ccc(N)cc2)c2ccc(N)cc2)cc1`: the T/C (T/C endpoint: median tumor weight (est.), dose: 6.25 mg/kg/injection, schedule: Q07DX002 (ip), vehicle: saline with Tween-80, evaluated on day 20, higher T/C = larger tumour) was 129 % of control. For the same molecule, the survivor count (T/C endpoint: median tumor weight (est.), dose: 50.0 mg/kg/injection, schedule: Q07DX002 (ip), vehicle: saline with Tween-80, higher T/C = larger tumour) was 0 of 10 on day 20; the survivor count under setting [8] is 0 of 10 on day 20; the survivor count under setting [9] is listed as 0 of 10 on day 20.
`OCC1OC(n2cnc3c(=S)nc[nH]c32)C(O)C1O` (stereo not given): under “T/C endpoint: median tumor weight (est.), dose: 200.0 mg/kg/injection, schedule: Q07DX002 (ip), vehicle: saline with Tween-80, evaluated on day 20, higher T/C = larger tumour”, the T/C was 138 % of control.
`OC1CCCC2CCCNC12` (stereo not given): under setting [12], the survivor count is recorded as 1 of 10 on day 20.
